The assay has as its system P388 leukemia ip, CD2F1 mice, survival T/C. Briefly: NCI In Vivo Anticancer Drug Screen. Data for tumor model P388 Leukemia (intraperitoneal) in CD2F1 (CDF1) mice. The conditions noted are these: T/C endpoint: median survival time, higher T/C = longer survival.
[1] abbreviates: dose: 30.0 mg/kg/injection, schedule: Q01DX005 (ip), vehicle: saline with Tween-80.
[2] abbreviates: dose: 60.0 mg/kg/injection, schedule: Q01DX005 (ip), vehicle: saline with Tween-80.
The mark [3] stands for this setting: dose: 120.0 mg/kg/injection, schedule: Q01DX005 (ip), vehicle: saline with Tween-80.
[4] abbreviates: dose: 240.0 mg/kg/injection, schedule: Q01DX005 (ip), vehicle: saline with Tween-80.
[5] abbreviates: dose: 200.0 mg/kg/injection, schedule: Q01DX005 (ip), vehicle: saline with Tween-80.
Setting [6] is: dose: 200.0 mg/kg/injection, schedule: Q04DX002 (ip), vehicle: saline with Tween-80.
Setting [7] is: dose: 25.0 mg/kg/injection, schedule: Q01DX009 (ip), vehicle: saline with Tween-80.
Setting [8] is: dose: 50.0 mg/kg/injection, schedule: Q01DX009 (ip), vehicle: saline with Tween-80.
[9] abbreviates: dose: 100.0 mg/kg/injection, schedule: Q01DX009 (ip), vehicle: saline with Tween-80.

The list shows only some results of the screen, not a fair sample: it is rich in T/C values a quarter to a half above the control, in often repeated tests (any T/C) and in doses without a T/C. Further doses and runs are listed elsewhere. T/C gives the treated animals as a percentage of the vehicle group. Some entries give survivors of the animals treated and no T/C: the source files T/C as zero there, which appears to mark a toxic dose or a test without result, not a measured value. Some survivor counts are full or nearly so, which does not show that the dose was tolerated: survival well below the control is almost never listed, so the zero probably covers shortened survival too. Counts of survivors are from the toxicity check (mostly the fifth day) where no day follows; animals may have died later. Schedules are NCI's codes, taken here to give the interval after Q, in days (D) or hours (H), and the number of doses after X. Signs of the kind (2×) stand for listed records that agree. Some doses were run more than once; their values stand side by side, smallest first. Where survival is the endpoint, this PubChem deposit counts one and a half times the control or more as active, and values a quarter to a half above the control carry no call in these data; other NCI protocols may use other cut-offs. Some T/C values carry the count of animals alive at the toxicity check (mostly the fifth day); without a count, all were alive then.

On to `NC(CCC(=O)NC(CSCNC(=O)Nc1ccc(Cl)cc1)C(=O)NCC(=O)O)C(=O)O` (centres undefined), for which the survivor count (dose: 240.0 mg/kg/injection, schedule: Q01DX005 (ip), vehicle: saline) is recorded as 5 of 6.

`NNc1ccc(Cl)nn1`: the survivor count under setting [1] is 0 of 6, the survivor count under setting [2] is 0 of 6, the survivor count under setting [3] is listed as 0 of 6 and the survivor count under setting [4] is listed as 0 of 6.

As to `ClCc1nsc(Cl)n1`, the survivor count is reported as 0 of 6 (dose: 100.0 mg/kg/injection, schedule: Q01DX005 (ip), vehicle: Klucel (hydroxypropylcellulose) (HPC)) and 0 of 6 (dose: 200.0 mg/kg/injection, schedule: Q01DX005 (ip), vehicle: Klucel (hydroxypropylcellulose) (HPC)).

As to `CCN(CC)CCCC(C)n1c2nc(=O)[nH]c(=O)c-2nc2ccc(Cl)cc21` (centres undefined), the survivor count reads like this: (dose: 50.0 mg/kg/injection, schedule: Q01DX005 (ip), vehicle: saline) 0 of 6; (dose: 100.0 mg/kg/injection, schedule: Q01DX005 (ip), vehicle: saline) 0 of 6; (dose: 200.0 mg/kg/injection, schedule: Q01DX005 (ip), vehicle: saline) 0 of 6.

Take `CCCC=C=CCN(C)C`: the survivor count is 1 of 6 (dose: 100.0 mg/kg/injection, schedule: Q04DX002 (ip), vehicle: saline); 0 of 6 (dose: 200.0 mg/kg/injection, schedule: Q04DX002 (ip), vehicle: saline); 0 of 6 (dose: 400.0 mg/kg/injection, schedule: Q04DX002 (ip), vehicle: saline).

Take `COc1ccc2sc3c(C)ccc(NCCCC4CCCN5CCCCC45)c3c(=O)c2c1` (centres undefined): the survivor count is listed as 6 of 6 (dose: 50.0 mg/kg/injection, schedule: Q01DX005 (ip), vehicle: saline with Tween-80); 6 of 6 (dose: 100.0 mg/kg/injection, schedule: Q01DX005 (ip), vehicle: saline with Tween-80); 2 of 6 under setting [5].

Turning to `CC(=O)N(C(C)=O)N(C(C)=O)c1cc2ccccc2cn1`, the survivor count under setting [5] is 4 of 6.

`COc1cc(-c2cc(O)c(-c3ccc4ccccc4n3)c(=O)[nH]2)cc(OC)c1OC`: the survivor count was 6 of 6 (dose: 15.0 mg/kg/injection, schedule: Q01DX005 (ip), vehicle: saline with Tween-80); 6 of 6 under setting [1]; 6 of 6 under setting [2].

Take `C(=C\c1cc2ccc(C3=NCCN3)cc2o1)/c1cc2ccc(C3=NCCN3)cc2o1`: the T/C (dose: 100.0 mg/kg/injection, schedule: Q04DX003 (ip), vehicle: suspension in saline) was 127 % of control. For the same molecule, the survivor count by setting is: (dose: 200.0 mg/kg/injection, schedule: Q04DX003 (ip), vehicle: suspension in saline) 1 of 6; (dose: 400.0 mg/kg/injection, schedule: Q04DX003 (ip), vehicle: suspension in saline) 1 of 6.

On to `CCCCCC(O)C1C(=O)OC(C)C(O)/C=C/C=C/C=C/C=C\C=C(\C)C(O)CC(O)CC(O)CC(O)CC(O)CC(O)CC1O` (centres undefined), for which the survivor count (dose: 40.0 mg/kg/injection, schedule: Q04DX003 (ip), vehicle: other) is listed as 0 of 6.

Turning to `CC1=CC(C)(C)Nc2ccc(CSc3ccccc3)cc21`, the T/C runs as follows: (dose: 100.0 mg/kg/injection, schedule: Q01DX009 (ip), vehicle: DMSO) 126 % of control; (dose: 200.0 mg/kg/injection, schedule: Q01DX009 (ip), vehicle: DMSO) 127 % of control [5 of 6 alive].

Regarding `C=C1C(=O)OC2C1CCC(C)C1C=CC(=O)C12C` (centres undefined), the survivor count under setting [6] was 2 of 6.

For the molecule `CSC(=S)N/N=C\c1c(CO)cnc(C)c1O`, under setting [6], the T/C is 133 % of control.

Consider `CC(=O)C(C=O)C(C)=O.CC(=O)CC(C)=O.CC(=O)CC(C)=O.[Ru]`, for which the survivor count by setting is: under setting [3], 3 of 6; under setting [4], 1 of 6.

In the case of `COc1ccc(/C=C/c2ccc3ccccc3[n+]2C)cc1`, the T/C reads like this: (dose: 16.5 mg/kg/injection, schedule: Q01DX009 (ip), vehicle: saline with Tween-80) 129 % of control; under setting [7], 127 % of control; (dose: 37.5 mg/kg/injection, schedule: Q01DX009 (ip), vehicle: saline with Tween-80) 131 % of control. The survivor count reads like this: under setting [8], 3 of 6; under setting [9], 0 of 6.

For `O=[N+]([O-])C1(Br)COC(c2cccc(O)c2)OC1` (centres undefined), the survivor count is, setting by setting: under setting [7], 3 of 6; under setting [8], 1 of 6 and 2 of 6; under setting [9], 0 of 6; (dose: 200.0 mg/kg/injection, schedule: Q01DX009 (ip), vehicle: saline with Tween-80) 0 of 6.

Consider `COc1cccc2c1C(=O)c1c(O)c3c(c(O)c1C2=O)C[C@@](O)(/C(C)=N/NC(=O)c1ccc(Cl)cc1)C[C@@H]3OC1CC(N)C(O)C(C)O1` (some centres undefined), for which the T/C was 145 % of control (dose: 0.25 mg/kg/injection, schedule: Q01DX009 (ip), vehicle: water); 139 % of control (dose: 0.5 mg/kg/injection, schedule: Q01DX009 (ip), vehicle: water); 145 % of control (dose: 1.0 mg/kg/injection, schedule: Q01DX009 (ip), vehicle: water); 140 % of control (dose: 4.0 mg/kg/injection, schedule: Q01DX009 (ip), vehicle: water). The survivor count (dose: 8.0 mg/kg/injection, schedule: Q01DX009 (ip), vehicle: water) was 6 of 6; the survivor count (dose: 16.0 mg/kg/injection, schedule: Q01DX009 (ip), vehicle: water) is 6 of 6 (2×); the survivor count (dose: 40.0 mg/kg/injection, schedule: Q01DX001 (ip), vehicle: water) is on record as 6 of 6; the survivor count (dose: 80.0 mg/kg/injection, schedule: Q01DX001 (ip), vehicle: water) is given as 2 of 6; the survivor count (dose: 160.0 mg/kg/injection, schedule: Q01DX001 (ip), vehicle: water) is 0 of 6.

On to `Cn1c(=O)c2c(nc(CF)n2C)n(C)c1=O`, for which, where the note is “dose: 400.0 mg/kg/injection, schedule: Q01DX001 (ip), vehicle: saline”, the survivor count is 0 of 6.

With `C/C(=C\[P+](c1ccccc1)(c1ccccc1)c1ccccc1)N1CC1`, the survivor count was 2 of 6 (dose: 25.0 mg/kg/injection, schedule: Q01DX001 (ip), vehicle: saline with Tween-80); 0 of 6 (dose: 50.0 mg/kg/injection, schedule: Q01DX001 (ip), vehicle: saline with Tween-80); 0 of 6 (dose: 100.0 mg/kg/injection, schedule: Q01DX001 (ip), vehicle: saline with Tween-80); 0 of 6 (dose: 200.0 mg/kg/injection, schedule: Q01DX001 (ip), vehicle: saline with Tween-80); 0 of 6 (dose: 400.0 mg/kg/injection, schedule: Q01DX001 (ip), vehicle: saline with Tween-80).

Regarding `CC(C)(O)C1COC2=C1C(=O)c1ccccc1C2=O` (centres undefined), the survivor count (dose: 200.0 mg/kg/injection, schedule: Q01DX009 (ip), vehicle: other) is reported as 0 of 6 and the survivor count (dose: 400.0 mg/kg/injection, schedule: Q01DX009 (ip), vehicle: other) was 0 of 6.

With `COc1cc(/C=C/[N+](=O)[O-])c(OC)cc1Br`, where the note is “dose: 12.5 mg/kg/injection, schedule: Q01DX009 (ip), vehicle: saline with Tween-80”, the T/C was 130 % of control. In addition, under setting [8], the survivor count is on record as 4 of 6.

Turning to `COC(=O)C(CSC(c1ccccc1)(c1ccccc1)c1ccccc1)NC(=O)CCNC(=O)OCc1ccccc1` (centres undefined), the survivor count (dose: 100.0 mg/kg/injection, schedule: Q01DX009 (ip), vehicle: other) is 6 of 6.

(Values after PubChem BioAssay AID330 (DTP/NCI, 2004).)
